{"source": "patent US6444234B1", "about": "“Compositions for rapid and non-irritating transdermal delivery of pharmaceutically active agents and methods for formulating such compositions and delivery thereof” (priority 1998, dated 2002)", "key": {"[1]": {"conditions": "both formulations (SDS-L and SDS-S), stated with the pH values"}, "hairless rat skin": {"system": "hairless rat skin", "conditions": "for Amount of morphine sulfate through 1 cm^2 of hairless rat skin, mean: mean of 3; for Amount of morphine sulfate through 1 cm^2 of hairless rat skin: single samples s-1 to s-3"}, "[2]": {"conditions": "from SDS-L (closed condition), 0 hr"}, "[3]": {"conditions": "from SDS-L (closed condition), 3 hr"}, "[4]": {"conditions": "from SDS-L (closed condition), 6 hr"}, "[5]": {"conditions": "from SDS-L (open condition), 0 hr"}, "[6]": {"conditions": "from SDS-L (open condition), 3 hr"}, "[7]": {"conditions": "from SDS-L (open condition), 6 hr"}, "[8]": {"conditions": "from SDS-S (closed condition), 0 hr"}, "[9]": {"conditions": "from SDS-S (closed condition), 3 hr"}, "[10]": {"conditions": "from SDS-S (closed condition), 6 hr"}}, "note": "“And” between values parts separate entries of the source, which are not always exact repeats. Equal entries are not always repeated. Where two headings read alike, the source gives them in different places.", "data": [{"smiles": "CN1CC[C@]23c4c5ccc(O)c4O[C@H]2[C@@H](O)C=C[C@H]3[C@H]1C5.O=S(=O)(O)O", "note": "[morphine sulfate]", "values": [{"measurement": "toxicity to the skin", "setting": "[1]", "value": "non-toxic to the skin"}, {"measurement": "time after which morphine sulfate is detected in the receptor solution", "setting": "hairless rat skin; both SDS-L and SDS-S", "value": "> 6", "unit": "h"}, {"measurement": "Amount of morphine sulfate through 1 cm^2 of hairless rat skin, mean", "setting": "hairless rat skin; [2]", "value": 0, "unit": "ug/cm^2"}, {"measurement": "Amount of morphine sulfate through 1 cm^2 of hairless rat skin", "setting": "hairless rat skin; [2]", "value": 0, "unit": "ug/cm^2"}, {"measurement": "Amount of morphine sulfate through 1 cm^2 of hairless rat skin, mean", "setting": "hairless rat skin; [3]", "value": 0, "unit": "ug/cm^2"}, {"measurement": "Amount of morphine sulfate through 1 cm^2 of hairless rat skin", "setting": "hairless rat skin; [3]", "value": 0, "unit": "ug/cm^2"}, {"measurement": "Amount of morphine sulfate through 1 cm^2 of hairless rat skin, mean", "setting": "hairless rat skin; [4]", "value": 0, "unit": "ug/cm^2"}, {"measurement": "Amount of morphine sulfate through 1 cm^2 of hairless rat skin", "setting": "hairless rat skin; [4]", "value": 0, "unit": "ug/cm^2"}, {"measurement": "Amount of morphine sulfate through 1 cm^2 of hairless rat skin, mean", "setting": "hairless rat skin; from SDS-L (closed condition), 22 hr", "value": 12, "unit": "ug/cm^2"}, {"measurement": "Amount of morphine sulfate through 1 cm^2 of hairless rat skin, mean", "setting": "hairless rat skin; from SDS-L (closed condition), 26 hr", "value": 126, "unit": "ug/cm^2"}, {"measurement": "Amount of morphine sulfate through 1 cm^2 of hairless rat skin, mean", "setting": "hairless rat skin; from SDS-L (closed condition), 29 hr", "value": 270, "unit": "ug/cm^2"}, {"measurement": "Amount of morphine sulfate through 1 cm^2 of hairless rat skin, mean", "setting": "hairless rat skin; [5]", "value": 0, "unit": "ug/cm^2"}, {"measurement": "Amount of morphine sulfate through 1 cm^2 of hairless rat skin", "setting": "hairless rat skin; [5]", "value": 0, "unit": "ug/cm^2"}, {"measurement": "Amount of morphine sulfate through 1 cm^2 of hairless rat skin, mean", "setting": "hairless rat skin; [6]", "value": 0, "unit": "ug/cm^2"}, {"measurement": "Amount of morphine sulfate through 1 cm^2 of hairless rat skin", "setting": "hairless rat skin; [6]", "value": 0, "unit": "ug/cm^2"}, {"measurement": "Amount of morphine sulfate through 1 cm^2 of hairless rat skin, mean", "setting": "hairless rat skin; [7]", "value": 0, "unit": "ug/cm^2"}, {"measurement": "Amount of morphine sulfate through 1 cm^2 of hairless rat skin", "setting": "hairless rat skin; [7]", "value": 0, "unit": "ug/cm^2"}, {"measurement": "Amount of morphine sulfate through 1 cm^2 of hairless rat skin, mean", "setting": "hairless rat skin; from SDS-L (open condition), 22 hr", "value": 44, "unit": "ug/cm^2"}, {"measurement": "Amount of morphine sulfate through 1 cm^2 of hairless rat skin, mean", "setting": "hairless rat skin; from SDS-L (open condition), 26 hr", "value": 155, "unit": "ug/cm^2"}, {"measurement": "Amount of morphine sulfate through 1 cm^2 of hairless rat skin, mean", "setting": "hairless rat skin; from SDS-L (open condition), 29 hr", "value": 275, "unit": "ug/cm^2"}, {"measurement": "Amount of morphine sulfate through 1 cm^2 of hairless rat skin, mean", "setting": "hairless rat skin; [8]", "value": 0, "unit": "ug/cm^2"}, {"measurement": "Amount of morphine sulfate through 1 cm^2 of hairless rat skin", "setting": "hairless rat skin; [8]", "value": 0, "unit": "ug/cm^2"}, {"measurement": "Amount of morphine sulfate through 1 cm^2 of hairless rat skin, mean", "setting": "hairless rat skin; [9]", "value": 0, "unit": "ug/cm^2"}, {"measurement": "Amount of morphine sulfate through 1 cm^2 of hairless rat skin", "setting": "hairless rat skin; [9]", "value": 0, "unit": "ug/cm^2"}, {"measurement": "Amount of morphine sulfate through 1 cm^2 of hairless rat skin, mean", "setting": "hairless rat skin; [10]", "value": 0, "unit": "ug/cm^2"}, {"measurement": "Amount of morphine sulfate through 1 cm^2 of hairless rat skin", "setting": "hairless rat skin; [10]", "value": 0, "unit": "ug/cm^2"}, {"measurement": "Amount of morphine sulfate through 1 cm^2 of hairless rat skin, mean", "setting": "hairless rat skin; from SDS-S (closed condition), 22 hr", "value": 802, "unit": "ug/cm^2"}, {"measurement": "Amount of morphine sulfate through 1 cm^2 of hairless rat skin", "setting": "hairless rat skin; from SDS-S (closed condition), 22 hr, sulfate", "value": "717 ug/cm^2 and 599 ug/cm^2 and 1091 ug/cm^2"}, {"measurement": "Amount of morphine sulfate through 1 cm^2 of hairless rat skin, mean", "setting": "hairless rat skin; from SDS-S (closed condition), 26 hr", "value": 1079, "unit": "ug/cm^2"}, {"measurement": "Amount of morphine sulfate through 1 cm^2 of hairless rat skin", "setting": "hairless rat skin; from SDS-S (closed condition), 26 hr, sulfate", "value": "1040 ug/cm^2 and 940 ug/cm^2 and 1256 ug/cm^2"}, {"measurement": "Amount of morphine sulfate through 1 cm^2 of hairless rat skin, mean", "setting": "hairless rat skin; from SDS-S (closed condition), 29 hr", "value": 1248, "unit": "ug/cm^2"}, {"measurement": "Amount of morphine sulfate through 1 cm^2 of hairless rat skin", "setting": "hairless rat skin; from SDS-S (closed condition), 29 hr, sulfate", "value": "1256 ug/cm^2 and 1112 ug/cm^2 and 1375 ug/cm^2"}]}]}
